Reference: publication doi:10.1101/2024.04.23.590789
Results are given in words; binding and its absence hold for the method and conditions named. In cells and extracts the contact can be indirect. Here binding means that the protein was enriched with, or labelled near, the bait; the list need not be complete.

Molecular target: SARS-CoV-2 Envelope (E) protein T9I (Omicron-associated), StrepII-tagged (SARS-CoV-2) (UniProt P0DTC4)
Test: affinity purification with mass spectrometry

## SNX12 (from UniProt Q9UMY4 1-162)
  binding: binds

B1: STX12 (protein, UniProt Q86Y82 1-276)
chain: MSYGPLDMYRNPGPSGPQLRDFSSIIQTCSGNIQRISQATAQIKNLMSQLGTKQDSSKLQENLQQLQHSTNQLAKETNELLKELGSLPLPLSTSEQRQQRLQKERLMNDFSAALNNFQAVQRRVSEKEKESIARARAGSRLSAEERQREEQLVSFDSHEEWNQMQSQEDEVAITEQDLELIKERETAIRQLEADILDVNQIFKDLAMMIHDQGDLIDSIEANVESSEVHVERATEQLQRAAYYQKKSRKKMCILVLVLSVIILILGLIIWLVYKTK
  binding: binds

B2: ABCG2 (protein, UniProt Q9UNQ0 1-655)
chain: MSSSNVEVFIPVSQGNTNGFPATASNDLKAFTEGAVLSFHNICYRVKLKSGFLPCRKPVEKEILSNINGIMKPGLNAILGPTGGGKSSLLDVLAARKDPSGLSGDVLINGAPRPANFKCNSGYVVQDDVVMGTLTVRENLQFSAALRLATTMTNHEKNERINRVIQELGLDKVADSKVGTQFIRGVSGGERKRTSIGMELITDPSILFLDEPTTGLDSSTANAVLLLLKRMSKQGRTIIFSIHQPRYSIFKLFDSLTLLASGRLMFHGPAQEALGYFESAGYHCEAYNNPADFFLDIINGDSTAVALNREEDFKATEIIEPSKQDKPLIEKLAEIYVNSSFYKETKAELHQLSGGEKKKKITVFKEISYTTSFCHQLRWVSKRSFKNLLGNPQASIAQIIVTVVLGLVIGAIYFGLKNDSTGIQNRAGVLFFLTTNQCFSSVSAVELFVVEKKLFIHEYISGYYRVSSYFLGKLLSDLLPMRMLPSIIFTCIVYFMLGLKPKADAFFVMMFTLMMVAYSASSMALAIAAGQSVVSVATLLMTICFVFMMIFSGLLVNLTTIASWLSWLQYFSIPRYGFTALQHNEFLGQNFCPGLNATGNNPCNYATCTGEEYLVKQGIDLSPWGLWKNHVALACMIVIFLTIAYLKLLFLKKYS
  binding: binds

B3: TAB1 (protein, UniProt Q15750 1-504)
chain: MAAQRRSLLQSEQQPSWTDDLPLCHLSGVGSASNRSYSADGKGTESHPPEDSWLKFRSENNCFLYGVFNGYDGNRVTNFVAQRLSAELLLGQLNAEHAEADVRRVLLQAFDVVERSFLESIDDALAEKASLQSQLPEGVPQHQLPPQYQKILERLKTLEREISGGAMAVVAVLLNNKLYVANVGTNRALLCKSTVDGLQVTQLNVDHTTENEDELFRLSQLGLDAGKIKQVGIICGQESTRRIGDYKVKYGYTDIDLLSAAKSKPIIAEPEIHGAQPLDGVTGFLVLMSEGLYKALEAAHGPGQANQEIAAMIDTEFAKQTSLDAVAQAVVDRVKRIHSDTFASGGERARFCPRHEDMTLLVRNFGYPLGEMSQPTPSPAPAAGGRVYPVSVPYSSAQSTSKTSVTLSLVMPSQGQMVNGAHSASTLDEATPTLTNQSPTLTLQSTNTHTQSSSSSSDGGLFRSRPAHSLPPGEDGRVEPYVDFAEFYRLWSVDHGEQSVVTAP
  binding: binds

B4: TMEM87b (protein, UniProt Q96K49 43-555)
chain: VPELGLWLETVNDKSGPLIFRKTMFNSTDIKLSVKSFHCSGPVKFTIVWHLKYHTCHNEHSNLEELFQKHKLSVDEDFCHYLKNDNCWTTKNENLDCNSDSQVFPSLNNKELINIRNVSNQERSMDVVARTQKDGFHIFIVSIKTENTDASWNLNVSLSMIGPHGYISASDWPLMIFYMVMCIVYILYGILWLTWSACYWKDILRIQFWIAAVIFLGMLEKAVFYSEYQNISNTGLSTQGLLIFAELISAIKRTLARLLVIIVSLGYGIVKPRLGTVMHRVIGLGLLYLIFAAVEGVMRVIGGSNHLAVVLDDIILAVIDSIFVWFIFISLAQTMKTLRLRKNTVKFSLYRHFKNTLIFAVLASIVFMGWTTKTFRIAKCQSDWMERWVDDAFWSFLFSLILIVIMFLWRPSANNQRYAFMPLIDDSDDEIEEFMVTSENLTEGIKLRASKSVSNGTAKPATSENFDEDLKWVEENIPSSFTDVALPVLVDSDEEIMTRSEMAEKMFSSEKIM
  binding: binds
